The source of these data is publication PMC2999606.

Results are given in words; binding and its absence hold for the method and conditions named. In cells and extracts the contact can be indirect. Binding can be weak; no strength is given. Where a sequence is shown, tags or fusion partners need not be part of it.

The assay addresses T1, Flag-tagged chicken p53 (chicken) (UniProt P10360).
T1 sequence: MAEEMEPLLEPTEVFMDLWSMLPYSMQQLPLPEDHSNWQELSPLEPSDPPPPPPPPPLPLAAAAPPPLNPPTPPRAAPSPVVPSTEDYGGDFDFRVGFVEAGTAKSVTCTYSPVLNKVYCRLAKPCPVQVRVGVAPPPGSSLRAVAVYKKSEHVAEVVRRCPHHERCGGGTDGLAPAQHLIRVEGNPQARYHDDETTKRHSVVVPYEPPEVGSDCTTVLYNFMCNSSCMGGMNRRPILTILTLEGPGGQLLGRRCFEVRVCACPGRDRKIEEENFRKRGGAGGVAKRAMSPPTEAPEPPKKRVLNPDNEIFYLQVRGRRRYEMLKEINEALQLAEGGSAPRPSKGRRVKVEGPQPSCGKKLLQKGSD
Briefly: co-IP; CEF cells co-transfected, 24 h; lysates immunoprecipitated with anti-Flag antibodies, immunoblotted with anti-GFP antibodies.

Take “GFP-tagged Meq (Marek's disease virus (MDV), strain RB1B)”: the binding result is “binds”.
